Test results taken from patent US20230405140A1, “ANTI-CD56 ANTIBODY-DRUG CONJUGATES AND THEIR USE IN THERAPY” (MCSAF INSIDE ONCOLOGY, priority 2020, published 2023).
Some entries share one result that the patent states for a list of compounds. At least one compound was matched to its structure with a doubt left. Non-standard residues stand in square brackets, D forms with d. Residues, ends and D or L forms follow the SMILES beside them. *: point of attachment. Dolaproine = CO[C@@H]([C@@H]1CCCN1)[C@@H](C)C(=O)O; Dil = CC[C@H](C)[C@H](NC)[C@@H](CC(=O)O)OC; X1 = C[C@@H](N*)[C@@H](O)c1ccccc1; NMeV = CN[C@H](C(=O)O)C(C)C

Key:
[1] = system: H69 small cell lung carcinoma cell line; test: XTT cytotoxicity test on H69 line; settings: read-out: IC50 cytotoxicity, 4 days of exposure
[2] = system: MCC lines (WaGa, PeTa, MS-1, MKL-2); test: XTT cytotoxicity test on MCC cell lines; settings: read-out: IC50 cytotoxicity, all of the MCC lines, 4 days of exposure

For `CC[C@H](C)[C@@H]([C@@H](CC(=O)N1CCC[C@H]1[C@H](OC)[C@@H](C)C(=O)N[C@H](C)[C@@H](O)c1ccccc1)OC)N(C)C(=O)[C@@H](NC(=O)[C@@H](NC)C(C)C)C(C)C` [MMAE, monomethyl auristatin E, reference compound] (H-[NMeV]V[Dil][Dolaproine]-X1), the IC50 [1] was 1 to 2 nM and the IC50 [2] was 1 to 10 nM.
